Measurements taken from publication PMC4267404, “Trihelix transcription factor GT-4 mediates salt tolerance via interaction with TEM2 in Arabidopsis”.

Molecular target: T1, GT-4-YFPc (GT-4 fused to the C-terminal part of yellow fluorescent protein) (Arabidopsis) (UniProt Q9LU92)
T1 sequence: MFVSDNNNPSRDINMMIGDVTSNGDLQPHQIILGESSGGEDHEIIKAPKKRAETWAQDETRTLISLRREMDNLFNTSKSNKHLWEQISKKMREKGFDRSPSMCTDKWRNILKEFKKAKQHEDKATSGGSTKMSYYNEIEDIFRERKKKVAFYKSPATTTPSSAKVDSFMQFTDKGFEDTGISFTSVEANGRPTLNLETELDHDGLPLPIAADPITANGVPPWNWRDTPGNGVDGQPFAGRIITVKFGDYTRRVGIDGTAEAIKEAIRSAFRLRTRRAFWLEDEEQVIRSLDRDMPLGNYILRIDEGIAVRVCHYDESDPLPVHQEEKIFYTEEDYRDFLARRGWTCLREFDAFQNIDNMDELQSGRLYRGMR
Experiment: split reporter; BiFC with YFP halves, constructs co-transformed into Arabidopsis protoplasts, confocal microscopy 16 h later

YN (N-terminal of yellow fluorescent protein alone) (domain or fragment)
binding: no binding

These are yes or no findings as the source states them, for the method shown. In cells and extracts the contact can be indirect. Tags and fused reporters may be left off the sequences shown.
